Results as given in PMC8225790.

Protein sequences, listed by entry. Tags and fused reporters are not part of them.
UniProt P56773: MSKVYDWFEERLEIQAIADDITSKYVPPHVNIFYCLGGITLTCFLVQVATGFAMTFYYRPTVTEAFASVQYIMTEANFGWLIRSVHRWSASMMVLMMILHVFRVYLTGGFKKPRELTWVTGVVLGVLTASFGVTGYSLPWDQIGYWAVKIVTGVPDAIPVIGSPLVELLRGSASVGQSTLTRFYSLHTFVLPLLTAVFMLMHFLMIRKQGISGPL

B1: PGRL1A (without the transit peptide, PGRL1A_(61-324)) (domain or fragment, UniProt Q8H112 61-324)
chain: ATTEQSGPVGGDNVDSNVLPYCSINKAEKKTIGEMEQEFLQALQSFYYDGKAIMSNEEFDNLKEELMWEGSSVVMLSSDEQRFLEASMAYVSGNPILNDEEYDKLKLKLKIDGSDIVSEGPRCSLRSKKVYSDLAVDYFKMLLLNVPATVVALGLFFFLDDITGFEITYIMELPEPYSFIFTWFAAVPVIVYLALSITKLIIKDFLILKGPCPNCGTENTSFFGTILSISSGGKTNTVKCTNCGTAMVYDSGSRLITLPEGSQA
B2: PGR5 (protein, UniProt Q9SL05 61-133)
chain: KNVNEGKGLFAPLVVVTRNLVGKKRFNQLRGKAIALHSQVITEFCKSIGADAKQRQGLIRLAKKNGERLGFLA
B3: FNR1 (protein, UniProt Q9FKW6 50-360)
chain: VTTDTTEAPPVKVVKESKKQEEGIVVNKFKPKNPYTGRCLLNTKITGDDAPGETWHIVFTTEGEVPYREGQSIGVIPEGIDKNGKPHKLRLYSIASSAIGDFGDSKTVSLCVKRLVYTNDGGEIVKGVCSNFLCDLKPGDEAKITGPVGKEMLMPKDPNATIIMLGTGTGIAPFRSFLWKMFFEEHEDYKFNGLAWLFLGVPTSSSLLYKEEFEKMKEKNPDNFRLDFAVSREQTNEKGEKMYIQTRMAEYAEELWELLKKDNTFVYMCGLKGMEKGIDDIMVSLAAKDGIDWLEYKKQLKRSEQWNVEVY
B4: FNR2 (protein, UniProt Q8W493 58-369)
chain: ITTETDTPTPAKKVEKVSKKNEEGVIVNRYRPKEPYTGKCLLNTKITADDAPGETWHMVFSHQGEIPYREGQSVGVIADGIDKNGKPHKVRLYSIASSALGDLGNSETVSLCVKRLVYTNDQGETVKGVCSNFLCDLAPGSDVKLTGPVGKEMLMPKDPNATVIMLATGTGIAPFRSFLWKMFFEKHDDYKFNGLAWLFLGVPTTSSLLYQEEFDKMKAKAPENFRVDYAISREQANDKGEKMYIQTRMAQYAAELWELLKKDNTFVYMCGLKGMEKGIDDIMVSLAANDGIDWFDYKKQLKKAEQWNVEVY

Target: PGRL2 (mature protein without its transit peptide, PGRL2_(41-299)) (Arabidopsis thaliana) (UniProt F4KJ55)
Assay: two-hybrid; split-ubiquitin assay (Dual Membrane kit, Dualsystems Biotech) in DSY-1 yeast; PGRL2-Cub as bait, NubG fusions as prey; colonies plated on permissive (-LT) and then selective (-LTH) medium

Molecule | binding
Cytb6 (from UniProt P56773 1-215) | no binding
B1 | binds
B2 | binds
B3 | no binding
B4 | no binding

No constants are given. Whether binding was seen depends on the method and setting. A result given as binding can be weak or reduced; the word gives no strength.
